Some of the results follow. Small differences around the control level are noise.

Chains of the proteins cited; added tags and fusions are not shown. Lines headed by an entry give the natural chain unless they say otherwise; changes in a name come on top.
UniProt Q9QZB7, whole entry: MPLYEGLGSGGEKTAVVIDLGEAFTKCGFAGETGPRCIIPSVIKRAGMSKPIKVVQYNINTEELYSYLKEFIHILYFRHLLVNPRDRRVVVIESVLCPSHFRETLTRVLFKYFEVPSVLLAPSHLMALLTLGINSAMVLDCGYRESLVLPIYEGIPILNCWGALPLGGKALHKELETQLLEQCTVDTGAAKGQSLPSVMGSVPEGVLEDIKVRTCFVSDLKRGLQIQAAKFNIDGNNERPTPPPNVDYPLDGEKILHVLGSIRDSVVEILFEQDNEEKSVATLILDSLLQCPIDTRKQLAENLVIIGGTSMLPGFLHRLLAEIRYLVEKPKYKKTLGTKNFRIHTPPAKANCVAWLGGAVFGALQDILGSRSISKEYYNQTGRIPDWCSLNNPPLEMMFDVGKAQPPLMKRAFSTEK
UniProt Q9QXN3: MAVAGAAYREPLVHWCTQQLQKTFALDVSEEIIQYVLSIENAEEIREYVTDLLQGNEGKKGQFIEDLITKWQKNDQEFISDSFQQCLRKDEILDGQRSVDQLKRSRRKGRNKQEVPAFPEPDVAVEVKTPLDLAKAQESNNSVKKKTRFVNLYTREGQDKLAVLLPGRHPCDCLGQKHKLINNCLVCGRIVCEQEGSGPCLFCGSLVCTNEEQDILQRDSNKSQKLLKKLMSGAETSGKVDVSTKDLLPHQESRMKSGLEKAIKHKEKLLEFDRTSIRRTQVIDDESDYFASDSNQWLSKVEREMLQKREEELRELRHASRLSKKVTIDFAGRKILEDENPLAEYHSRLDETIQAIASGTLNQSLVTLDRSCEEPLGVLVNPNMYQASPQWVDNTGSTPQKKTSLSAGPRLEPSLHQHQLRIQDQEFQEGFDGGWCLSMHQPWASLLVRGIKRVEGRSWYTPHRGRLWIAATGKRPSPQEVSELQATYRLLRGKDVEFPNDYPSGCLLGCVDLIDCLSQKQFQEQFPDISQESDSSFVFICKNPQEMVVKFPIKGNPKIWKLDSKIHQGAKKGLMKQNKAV
UniProt Q9WTV7: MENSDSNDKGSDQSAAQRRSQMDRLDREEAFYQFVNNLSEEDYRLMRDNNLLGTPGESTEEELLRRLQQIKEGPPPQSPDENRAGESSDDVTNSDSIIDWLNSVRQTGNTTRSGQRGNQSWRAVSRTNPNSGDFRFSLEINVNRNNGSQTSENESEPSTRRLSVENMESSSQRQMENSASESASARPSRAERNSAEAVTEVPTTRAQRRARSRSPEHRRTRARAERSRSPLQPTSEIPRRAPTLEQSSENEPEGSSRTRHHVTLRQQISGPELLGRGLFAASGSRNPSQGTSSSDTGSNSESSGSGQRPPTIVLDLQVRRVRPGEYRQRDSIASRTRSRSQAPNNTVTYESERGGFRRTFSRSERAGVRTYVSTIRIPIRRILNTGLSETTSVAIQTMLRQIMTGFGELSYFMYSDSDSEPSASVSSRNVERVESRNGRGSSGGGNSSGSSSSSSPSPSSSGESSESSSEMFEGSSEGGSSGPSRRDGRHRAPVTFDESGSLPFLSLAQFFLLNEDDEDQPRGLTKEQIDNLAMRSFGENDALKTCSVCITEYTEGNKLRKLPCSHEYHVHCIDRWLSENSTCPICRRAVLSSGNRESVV
UniProt Q9WTU0: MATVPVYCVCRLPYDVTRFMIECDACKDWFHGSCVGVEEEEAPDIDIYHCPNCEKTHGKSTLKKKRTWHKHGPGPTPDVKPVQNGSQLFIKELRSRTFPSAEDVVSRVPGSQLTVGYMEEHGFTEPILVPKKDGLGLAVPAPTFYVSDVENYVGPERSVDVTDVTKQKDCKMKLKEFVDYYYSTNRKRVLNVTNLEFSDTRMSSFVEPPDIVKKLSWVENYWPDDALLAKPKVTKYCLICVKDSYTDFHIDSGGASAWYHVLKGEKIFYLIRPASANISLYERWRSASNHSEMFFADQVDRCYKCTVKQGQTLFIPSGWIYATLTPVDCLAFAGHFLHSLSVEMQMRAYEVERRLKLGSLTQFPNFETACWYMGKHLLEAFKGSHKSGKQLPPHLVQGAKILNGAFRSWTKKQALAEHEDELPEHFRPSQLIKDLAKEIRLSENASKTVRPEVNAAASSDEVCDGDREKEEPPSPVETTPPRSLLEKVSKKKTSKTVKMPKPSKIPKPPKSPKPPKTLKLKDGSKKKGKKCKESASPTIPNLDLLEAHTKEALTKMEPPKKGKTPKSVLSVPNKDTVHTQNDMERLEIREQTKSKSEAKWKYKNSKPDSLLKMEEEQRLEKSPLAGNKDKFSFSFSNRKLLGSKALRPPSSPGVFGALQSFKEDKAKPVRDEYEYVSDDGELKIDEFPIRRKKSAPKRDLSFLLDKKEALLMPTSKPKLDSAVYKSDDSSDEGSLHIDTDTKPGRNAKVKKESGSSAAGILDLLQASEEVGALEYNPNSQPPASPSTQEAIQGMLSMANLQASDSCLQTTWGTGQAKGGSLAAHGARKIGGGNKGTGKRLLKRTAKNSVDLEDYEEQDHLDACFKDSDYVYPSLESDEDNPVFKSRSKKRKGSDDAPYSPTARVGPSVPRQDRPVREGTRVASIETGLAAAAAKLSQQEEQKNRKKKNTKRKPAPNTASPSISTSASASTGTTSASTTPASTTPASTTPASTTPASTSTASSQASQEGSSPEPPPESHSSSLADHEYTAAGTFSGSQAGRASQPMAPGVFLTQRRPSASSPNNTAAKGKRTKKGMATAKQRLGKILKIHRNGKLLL
UniProt Q9WUR2: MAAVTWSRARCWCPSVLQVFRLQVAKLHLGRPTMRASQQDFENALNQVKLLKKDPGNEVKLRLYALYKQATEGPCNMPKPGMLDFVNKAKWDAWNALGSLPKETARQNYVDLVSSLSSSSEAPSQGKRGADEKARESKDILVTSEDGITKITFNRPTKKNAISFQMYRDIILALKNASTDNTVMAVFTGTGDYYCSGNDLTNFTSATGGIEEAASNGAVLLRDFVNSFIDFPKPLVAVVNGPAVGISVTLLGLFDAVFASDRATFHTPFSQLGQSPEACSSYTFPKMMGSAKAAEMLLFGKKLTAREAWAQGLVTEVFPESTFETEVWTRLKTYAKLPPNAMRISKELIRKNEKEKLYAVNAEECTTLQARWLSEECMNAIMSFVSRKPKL
UniProt Q9R0A5: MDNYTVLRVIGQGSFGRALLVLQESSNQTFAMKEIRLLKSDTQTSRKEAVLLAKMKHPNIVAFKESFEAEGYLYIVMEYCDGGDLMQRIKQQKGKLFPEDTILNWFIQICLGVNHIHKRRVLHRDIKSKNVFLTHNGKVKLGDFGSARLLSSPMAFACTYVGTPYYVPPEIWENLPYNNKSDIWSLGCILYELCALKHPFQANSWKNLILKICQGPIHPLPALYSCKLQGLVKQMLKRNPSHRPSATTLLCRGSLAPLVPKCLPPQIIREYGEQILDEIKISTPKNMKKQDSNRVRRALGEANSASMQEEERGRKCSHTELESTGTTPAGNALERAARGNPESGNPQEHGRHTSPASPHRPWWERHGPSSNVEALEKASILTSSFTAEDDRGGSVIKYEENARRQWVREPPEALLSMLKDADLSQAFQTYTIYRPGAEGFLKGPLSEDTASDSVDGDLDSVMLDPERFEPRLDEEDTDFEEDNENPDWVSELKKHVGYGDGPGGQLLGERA
UniProt Q9WU42, whole entry: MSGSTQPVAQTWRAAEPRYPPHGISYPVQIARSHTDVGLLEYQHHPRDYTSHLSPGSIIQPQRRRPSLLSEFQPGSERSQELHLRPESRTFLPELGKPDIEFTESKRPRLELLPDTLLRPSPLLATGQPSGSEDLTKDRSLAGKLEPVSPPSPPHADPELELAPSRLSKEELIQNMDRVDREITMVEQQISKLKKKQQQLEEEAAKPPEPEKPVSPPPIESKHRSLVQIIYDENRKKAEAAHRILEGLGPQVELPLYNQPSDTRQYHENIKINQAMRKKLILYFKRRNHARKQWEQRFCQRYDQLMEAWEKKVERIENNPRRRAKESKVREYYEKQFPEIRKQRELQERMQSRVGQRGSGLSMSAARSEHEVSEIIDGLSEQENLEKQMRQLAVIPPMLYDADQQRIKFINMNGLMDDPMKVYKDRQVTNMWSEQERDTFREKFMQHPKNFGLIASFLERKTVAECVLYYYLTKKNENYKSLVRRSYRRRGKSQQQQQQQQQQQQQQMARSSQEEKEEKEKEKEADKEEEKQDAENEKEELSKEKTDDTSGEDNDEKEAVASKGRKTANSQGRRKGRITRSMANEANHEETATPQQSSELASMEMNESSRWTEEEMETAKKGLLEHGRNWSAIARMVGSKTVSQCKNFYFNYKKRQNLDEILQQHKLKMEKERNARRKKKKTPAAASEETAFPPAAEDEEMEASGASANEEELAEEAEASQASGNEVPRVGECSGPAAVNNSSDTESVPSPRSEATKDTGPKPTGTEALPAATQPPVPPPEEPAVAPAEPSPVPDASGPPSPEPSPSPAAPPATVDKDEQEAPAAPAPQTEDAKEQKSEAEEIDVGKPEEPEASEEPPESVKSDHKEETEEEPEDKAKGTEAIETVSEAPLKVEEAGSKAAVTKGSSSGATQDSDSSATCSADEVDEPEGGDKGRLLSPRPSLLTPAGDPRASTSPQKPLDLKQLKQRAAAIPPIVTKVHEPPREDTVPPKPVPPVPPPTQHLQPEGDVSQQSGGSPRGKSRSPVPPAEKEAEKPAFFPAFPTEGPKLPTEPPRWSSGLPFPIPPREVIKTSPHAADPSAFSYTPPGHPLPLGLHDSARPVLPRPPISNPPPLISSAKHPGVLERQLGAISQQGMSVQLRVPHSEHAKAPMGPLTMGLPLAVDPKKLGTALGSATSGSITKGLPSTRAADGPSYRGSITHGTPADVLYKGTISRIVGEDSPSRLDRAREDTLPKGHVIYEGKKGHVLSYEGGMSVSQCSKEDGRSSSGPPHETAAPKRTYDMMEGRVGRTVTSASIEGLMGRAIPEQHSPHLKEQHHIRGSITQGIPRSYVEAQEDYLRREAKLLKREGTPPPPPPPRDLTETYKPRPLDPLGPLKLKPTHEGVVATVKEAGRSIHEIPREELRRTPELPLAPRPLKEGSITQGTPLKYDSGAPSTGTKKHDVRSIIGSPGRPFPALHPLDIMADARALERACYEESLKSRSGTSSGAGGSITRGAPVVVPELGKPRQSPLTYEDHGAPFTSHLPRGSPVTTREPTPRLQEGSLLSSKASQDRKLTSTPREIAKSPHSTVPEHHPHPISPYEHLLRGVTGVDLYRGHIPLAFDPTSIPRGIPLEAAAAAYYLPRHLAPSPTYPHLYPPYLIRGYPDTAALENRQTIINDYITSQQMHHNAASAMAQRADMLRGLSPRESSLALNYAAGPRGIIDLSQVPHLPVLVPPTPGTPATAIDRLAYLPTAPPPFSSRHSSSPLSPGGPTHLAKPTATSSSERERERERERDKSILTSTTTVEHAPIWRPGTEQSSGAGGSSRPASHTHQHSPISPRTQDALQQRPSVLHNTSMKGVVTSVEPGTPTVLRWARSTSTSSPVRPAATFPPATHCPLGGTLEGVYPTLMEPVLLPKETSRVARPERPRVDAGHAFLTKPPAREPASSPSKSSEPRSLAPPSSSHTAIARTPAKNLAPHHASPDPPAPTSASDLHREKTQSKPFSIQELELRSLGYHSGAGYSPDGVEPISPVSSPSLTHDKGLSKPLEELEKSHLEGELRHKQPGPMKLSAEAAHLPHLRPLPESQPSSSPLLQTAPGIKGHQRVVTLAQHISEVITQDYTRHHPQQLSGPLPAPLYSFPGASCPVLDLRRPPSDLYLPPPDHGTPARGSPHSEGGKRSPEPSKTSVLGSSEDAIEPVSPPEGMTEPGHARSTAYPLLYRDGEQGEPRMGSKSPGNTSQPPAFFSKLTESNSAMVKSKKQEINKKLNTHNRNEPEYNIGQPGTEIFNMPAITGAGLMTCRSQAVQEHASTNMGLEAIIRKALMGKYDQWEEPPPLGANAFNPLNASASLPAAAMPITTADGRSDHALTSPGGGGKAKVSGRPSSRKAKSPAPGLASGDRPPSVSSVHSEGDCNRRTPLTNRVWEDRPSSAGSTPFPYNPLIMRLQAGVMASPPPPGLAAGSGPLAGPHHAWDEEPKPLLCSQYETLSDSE
UniProt Q9R099: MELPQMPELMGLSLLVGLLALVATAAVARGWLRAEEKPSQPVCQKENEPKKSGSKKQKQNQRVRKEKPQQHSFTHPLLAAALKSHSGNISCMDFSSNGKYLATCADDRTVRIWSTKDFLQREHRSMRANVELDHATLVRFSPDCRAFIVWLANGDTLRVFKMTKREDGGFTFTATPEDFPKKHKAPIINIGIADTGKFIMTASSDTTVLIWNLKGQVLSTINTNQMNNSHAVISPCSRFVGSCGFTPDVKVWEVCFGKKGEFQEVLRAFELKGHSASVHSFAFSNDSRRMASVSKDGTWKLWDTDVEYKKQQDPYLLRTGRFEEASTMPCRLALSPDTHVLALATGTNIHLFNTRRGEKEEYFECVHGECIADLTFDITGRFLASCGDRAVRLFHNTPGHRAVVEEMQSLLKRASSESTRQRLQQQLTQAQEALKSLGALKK

Compound in the assay: CN[C@@H]1C[C@H]2O[C@@](C)([C@@H]1OC)n1c3ccccc3c3c4c(c5c6ccccc6n2c5c31)C(=O)NC4 [staurosporine]
Put plainly: log2 fold change of tryptic peptide abundance, ligand vs vehicle (limited proteolysis) (log2 ratio); higher = more trypsin-susceptible (destabilized). The settings on record: ligand concentration: 20 uM; sample: mouse liver crude lysate; replicate design: treated separately.
With “UniProt Q9QZB7 (peptide sequence: EYYNQTGR, peptide start residue: 376)”, the log2 fold change was -0.403.

Regarding “UniProt Q9QXN3 (peptide sequence: KTSLSAGPR, peptide start residue: 402)”, the log2 fold change is -0.618.

As to “UniProt Q9WTV7 (peptide sequence: QMENSASESASARPSR, peptide start residue: 174)”, the log2 fold change amounted to 0.315.

Regarding “UniProt Q9WTU0 (peptide sequence: GSDDAPYSPTAR, peptide start residue: 892)”, the log2 fold change worked out at 0.413.

Consider “UniProt Q9WUR2 (peptide sequence: KNAISFQMYR, peptide start residue: 159)”, for which the log2 fold change amounted to 0.224.

Take “UniProt Q9R0A5 (peptide sequence: GRKCSHTELESTGTTPAGNALER, peptide start residue: 313)”: the log2 fold change was -0.218.

As for “UniProt Q9QXY9 (peptide sequence: RQYHFESNQR, peptide start residue: 54)”, the log2 fold change is 0.0884.

Regarding “UniProt Q9WU42 (peptide sequence: EGTPPPPPPPR, peptide start residue: 1348)”, the log2 fold change was -0.627.

Consider “UniProt Q9R099 (peptide sequence: EKPQQHSFTHPLLAAALK, peptide start residue: 66)”, for which the log2 fold change is -0.371.

For “UniProt Q9WTX6 (peptide sequence: CGEAALNDPK, peptide start residue: 355)”, the log2 fold change is -0.871.
